Measurements reported in paper PMC11773556, “Neuromodulating Alkaloids from Millipede Defensive Secretions” (Journal of Natural Products, 2024).

Chains of the proteins cited; added tags and fusions are not shown. Lines headed by an entry give the natural chain unless they say otherwise; changes in a name come on top. Residues count along the entry.
UniProt P09483, 31-630: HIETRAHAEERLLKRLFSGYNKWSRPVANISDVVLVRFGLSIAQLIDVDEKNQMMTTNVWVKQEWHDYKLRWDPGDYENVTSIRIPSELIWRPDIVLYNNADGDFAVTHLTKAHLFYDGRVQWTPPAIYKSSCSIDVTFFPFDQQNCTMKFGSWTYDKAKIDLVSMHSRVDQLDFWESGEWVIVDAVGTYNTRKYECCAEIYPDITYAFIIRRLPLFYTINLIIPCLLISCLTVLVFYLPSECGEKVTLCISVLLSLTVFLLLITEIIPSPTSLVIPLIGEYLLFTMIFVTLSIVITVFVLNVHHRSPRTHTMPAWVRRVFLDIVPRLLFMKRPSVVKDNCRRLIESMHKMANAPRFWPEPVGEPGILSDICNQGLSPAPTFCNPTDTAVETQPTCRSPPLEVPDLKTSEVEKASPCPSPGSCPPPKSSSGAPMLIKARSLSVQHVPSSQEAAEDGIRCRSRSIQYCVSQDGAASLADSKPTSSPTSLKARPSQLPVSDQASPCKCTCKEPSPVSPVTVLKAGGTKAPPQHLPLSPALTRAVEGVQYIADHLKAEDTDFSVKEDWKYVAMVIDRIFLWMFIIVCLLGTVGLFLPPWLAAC
UniProt P12392, 21-495: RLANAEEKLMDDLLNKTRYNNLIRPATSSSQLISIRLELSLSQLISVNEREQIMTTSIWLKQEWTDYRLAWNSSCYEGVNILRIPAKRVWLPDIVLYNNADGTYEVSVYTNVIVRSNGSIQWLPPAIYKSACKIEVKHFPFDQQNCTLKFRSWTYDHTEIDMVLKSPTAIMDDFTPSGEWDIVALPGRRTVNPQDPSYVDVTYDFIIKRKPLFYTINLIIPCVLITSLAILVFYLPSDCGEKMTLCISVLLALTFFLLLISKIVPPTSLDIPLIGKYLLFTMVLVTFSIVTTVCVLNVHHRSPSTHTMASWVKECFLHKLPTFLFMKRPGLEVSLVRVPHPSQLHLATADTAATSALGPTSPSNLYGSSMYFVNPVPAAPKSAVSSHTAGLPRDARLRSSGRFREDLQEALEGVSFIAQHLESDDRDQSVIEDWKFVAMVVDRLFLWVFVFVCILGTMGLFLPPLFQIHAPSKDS
UniProt P35368, whole entry: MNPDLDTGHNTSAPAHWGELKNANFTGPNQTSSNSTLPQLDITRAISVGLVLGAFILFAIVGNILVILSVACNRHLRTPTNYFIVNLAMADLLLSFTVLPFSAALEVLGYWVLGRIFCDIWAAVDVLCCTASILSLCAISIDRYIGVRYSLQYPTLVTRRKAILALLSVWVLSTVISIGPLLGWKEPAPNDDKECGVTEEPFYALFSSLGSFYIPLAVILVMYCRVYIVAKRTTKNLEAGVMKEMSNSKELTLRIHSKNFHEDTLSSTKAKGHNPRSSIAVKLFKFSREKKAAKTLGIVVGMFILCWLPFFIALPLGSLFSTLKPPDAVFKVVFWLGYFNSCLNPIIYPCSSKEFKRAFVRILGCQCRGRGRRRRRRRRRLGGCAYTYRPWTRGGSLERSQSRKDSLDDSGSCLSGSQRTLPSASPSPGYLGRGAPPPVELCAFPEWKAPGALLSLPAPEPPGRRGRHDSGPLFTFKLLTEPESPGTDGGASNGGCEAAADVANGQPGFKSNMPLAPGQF
UniProt P23975, whole entry: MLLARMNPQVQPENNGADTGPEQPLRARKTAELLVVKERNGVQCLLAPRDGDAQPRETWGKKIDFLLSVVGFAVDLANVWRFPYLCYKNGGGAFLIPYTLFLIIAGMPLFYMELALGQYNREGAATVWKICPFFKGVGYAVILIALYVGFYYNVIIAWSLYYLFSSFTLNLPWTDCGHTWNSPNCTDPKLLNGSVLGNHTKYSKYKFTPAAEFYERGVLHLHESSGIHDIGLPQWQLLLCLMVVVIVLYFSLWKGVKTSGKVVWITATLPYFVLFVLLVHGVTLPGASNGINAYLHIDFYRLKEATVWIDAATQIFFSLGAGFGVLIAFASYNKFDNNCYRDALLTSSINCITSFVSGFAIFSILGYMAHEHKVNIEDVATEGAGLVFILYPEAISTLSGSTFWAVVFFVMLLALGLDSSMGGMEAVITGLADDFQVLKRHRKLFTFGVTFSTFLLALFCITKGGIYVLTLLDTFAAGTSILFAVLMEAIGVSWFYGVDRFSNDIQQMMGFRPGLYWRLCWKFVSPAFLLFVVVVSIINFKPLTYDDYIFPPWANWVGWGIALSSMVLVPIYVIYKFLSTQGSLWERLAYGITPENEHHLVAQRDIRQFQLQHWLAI
UniProt P16257, whole entry: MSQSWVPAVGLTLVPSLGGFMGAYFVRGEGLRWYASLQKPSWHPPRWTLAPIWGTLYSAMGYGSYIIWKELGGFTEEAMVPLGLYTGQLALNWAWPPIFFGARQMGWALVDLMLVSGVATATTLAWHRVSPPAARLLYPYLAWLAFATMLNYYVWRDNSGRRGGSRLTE
UniProt P12390, 25-500: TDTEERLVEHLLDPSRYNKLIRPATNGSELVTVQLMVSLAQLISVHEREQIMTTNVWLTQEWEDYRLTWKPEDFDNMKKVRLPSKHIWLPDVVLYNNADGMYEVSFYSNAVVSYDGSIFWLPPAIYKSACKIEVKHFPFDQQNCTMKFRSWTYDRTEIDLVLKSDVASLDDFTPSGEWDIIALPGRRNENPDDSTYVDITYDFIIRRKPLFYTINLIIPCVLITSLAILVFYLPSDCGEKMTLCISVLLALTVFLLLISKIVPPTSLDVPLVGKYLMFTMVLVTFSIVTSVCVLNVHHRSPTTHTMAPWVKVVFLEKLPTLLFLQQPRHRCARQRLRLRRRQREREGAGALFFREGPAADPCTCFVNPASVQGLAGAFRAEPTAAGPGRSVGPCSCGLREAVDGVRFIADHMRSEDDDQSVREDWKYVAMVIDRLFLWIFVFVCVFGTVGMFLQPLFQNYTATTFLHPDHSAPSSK
UniProt P47898, whole entry: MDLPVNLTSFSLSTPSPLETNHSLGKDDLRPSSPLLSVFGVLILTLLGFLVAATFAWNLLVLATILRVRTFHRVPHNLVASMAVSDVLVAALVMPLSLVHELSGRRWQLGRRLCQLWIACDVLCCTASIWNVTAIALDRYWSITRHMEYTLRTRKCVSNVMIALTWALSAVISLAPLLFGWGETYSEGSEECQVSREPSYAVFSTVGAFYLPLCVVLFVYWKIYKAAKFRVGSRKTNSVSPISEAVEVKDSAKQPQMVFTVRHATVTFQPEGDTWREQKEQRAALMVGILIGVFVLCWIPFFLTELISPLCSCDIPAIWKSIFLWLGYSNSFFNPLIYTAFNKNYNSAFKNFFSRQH
UniProt P20309, whole entry: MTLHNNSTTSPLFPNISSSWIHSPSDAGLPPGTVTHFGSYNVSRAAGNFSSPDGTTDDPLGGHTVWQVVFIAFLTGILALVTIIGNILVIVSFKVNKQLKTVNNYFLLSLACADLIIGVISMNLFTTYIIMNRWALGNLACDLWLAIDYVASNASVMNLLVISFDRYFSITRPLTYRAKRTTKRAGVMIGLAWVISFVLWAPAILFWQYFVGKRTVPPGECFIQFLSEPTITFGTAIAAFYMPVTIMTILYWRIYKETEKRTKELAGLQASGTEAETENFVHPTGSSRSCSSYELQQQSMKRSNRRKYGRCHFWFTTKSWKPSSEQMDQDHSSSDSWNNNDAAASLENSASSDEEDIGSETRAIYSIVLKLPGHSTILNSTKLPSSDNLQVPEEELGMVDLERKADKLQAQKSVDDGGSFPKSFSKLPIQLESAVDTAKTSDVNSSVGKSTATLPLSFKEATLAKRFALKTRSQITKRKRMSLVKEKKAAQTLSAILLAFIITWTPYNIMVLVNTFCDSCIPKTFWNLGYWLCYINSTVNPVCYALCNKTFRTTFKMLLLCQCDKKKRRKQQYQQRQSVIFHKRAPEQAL
UniProt P35348: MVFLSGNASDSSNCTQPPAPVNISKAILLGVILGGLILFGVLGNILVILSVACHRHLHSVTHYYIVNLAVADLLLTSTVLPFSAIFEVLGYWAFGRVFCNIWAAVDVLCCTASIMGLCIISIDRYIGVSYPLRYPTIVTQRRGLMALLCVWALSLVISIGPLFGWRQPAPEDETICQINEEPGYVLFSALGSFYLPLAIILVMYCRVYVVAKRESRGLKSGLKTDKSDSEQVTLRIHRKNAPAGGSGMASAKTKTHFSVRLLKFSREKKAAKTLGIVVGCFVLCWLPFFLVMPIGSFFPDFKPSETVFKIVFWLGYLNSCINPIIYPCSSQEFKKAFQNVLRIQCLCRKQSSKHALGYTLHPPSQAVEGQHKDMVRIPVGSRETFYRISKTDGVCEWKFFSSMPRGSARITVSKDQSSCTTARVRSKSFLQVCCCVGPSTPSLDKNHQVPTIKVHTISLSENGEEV
UniProt P28335, 33-458: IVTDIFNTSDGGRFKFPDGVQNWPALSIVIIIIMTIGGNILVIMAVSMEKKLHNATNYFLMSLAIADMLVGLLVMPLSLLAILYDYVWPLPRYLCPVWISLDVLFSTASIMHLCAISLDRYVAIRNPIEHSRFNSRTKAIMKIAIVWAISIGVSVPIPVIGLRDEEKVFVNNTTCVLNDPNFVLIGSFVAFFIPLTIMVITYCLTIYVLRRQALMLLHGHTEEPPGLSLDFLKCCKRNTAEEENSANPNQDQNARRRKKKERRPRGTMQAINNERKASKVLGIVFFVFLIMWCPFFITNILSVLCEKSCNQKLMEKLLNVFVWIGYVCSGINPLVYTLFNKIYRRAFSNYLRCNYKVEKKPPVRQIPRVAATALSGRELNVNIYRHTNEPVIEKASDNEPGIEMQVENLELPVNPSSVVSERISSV
UniProt P08172, whole entry: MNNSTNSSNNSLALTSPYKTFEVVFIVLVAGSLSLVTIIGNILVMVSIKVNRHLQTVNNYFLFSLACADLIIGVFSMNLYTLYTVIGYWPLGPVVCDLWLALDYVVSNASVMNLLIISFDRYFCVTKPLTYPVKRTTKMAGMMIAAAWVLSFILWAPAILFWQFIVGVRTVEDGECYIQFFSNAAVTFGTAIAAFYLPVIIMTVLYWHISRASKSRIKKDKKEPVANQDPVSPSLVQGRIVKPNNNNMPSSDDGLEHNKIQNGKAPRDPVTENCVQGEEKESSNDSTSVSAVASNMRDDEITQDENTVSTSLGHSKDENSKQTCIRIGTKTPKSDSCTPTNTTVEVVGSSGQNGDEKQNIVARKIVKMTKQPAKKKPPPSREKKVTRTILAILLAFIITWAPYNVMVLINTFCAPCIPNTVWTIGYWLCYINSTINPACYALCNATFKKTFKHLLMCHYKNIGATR
UniProt P08913, whole entry: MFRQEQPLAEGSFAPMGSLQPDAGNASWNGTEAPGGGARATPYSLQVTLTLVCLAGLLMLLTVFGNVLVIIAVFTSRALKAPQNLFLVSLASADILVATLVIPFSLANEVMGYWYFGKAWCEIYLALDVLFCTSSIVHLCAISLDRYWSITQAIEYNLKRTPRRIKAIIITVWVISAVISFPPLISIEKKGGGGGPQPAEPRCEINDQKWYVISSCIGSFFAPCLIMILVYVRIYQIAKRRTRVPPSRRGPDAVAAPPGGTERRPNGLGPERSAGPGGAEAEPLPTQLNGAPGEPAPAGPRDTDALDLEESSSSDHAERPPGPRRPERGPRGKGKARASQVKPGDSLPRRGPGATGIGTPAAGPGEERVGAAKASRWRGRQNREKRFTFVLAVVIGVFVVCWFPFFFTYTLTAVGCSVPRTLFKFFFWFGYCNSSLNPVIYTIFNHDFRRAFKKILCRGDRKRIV
UniProt P08173, whole entry: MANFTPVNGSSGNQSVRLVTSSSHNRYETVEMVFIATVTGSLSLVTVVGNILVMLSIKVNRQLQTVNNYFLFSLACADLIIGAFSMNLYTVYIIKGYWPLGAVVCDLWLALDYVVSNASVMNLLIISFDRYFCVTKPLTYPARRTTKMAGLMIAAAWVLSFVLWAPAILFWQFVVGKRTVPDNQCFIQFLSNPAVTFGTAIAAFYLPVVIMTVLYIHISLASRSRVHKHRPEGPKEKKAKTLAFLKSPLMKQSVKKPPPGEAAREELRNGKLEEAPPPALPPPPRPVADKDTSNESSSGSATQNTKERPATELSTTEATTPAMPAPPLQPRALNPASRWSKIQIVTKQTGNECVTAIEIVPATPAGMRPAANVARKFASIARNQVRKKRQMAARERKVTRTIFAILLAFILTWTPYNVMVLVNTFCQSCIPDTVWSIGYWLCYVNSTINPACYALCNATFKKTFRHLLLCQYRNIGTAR
UniProt P25021, whole entry: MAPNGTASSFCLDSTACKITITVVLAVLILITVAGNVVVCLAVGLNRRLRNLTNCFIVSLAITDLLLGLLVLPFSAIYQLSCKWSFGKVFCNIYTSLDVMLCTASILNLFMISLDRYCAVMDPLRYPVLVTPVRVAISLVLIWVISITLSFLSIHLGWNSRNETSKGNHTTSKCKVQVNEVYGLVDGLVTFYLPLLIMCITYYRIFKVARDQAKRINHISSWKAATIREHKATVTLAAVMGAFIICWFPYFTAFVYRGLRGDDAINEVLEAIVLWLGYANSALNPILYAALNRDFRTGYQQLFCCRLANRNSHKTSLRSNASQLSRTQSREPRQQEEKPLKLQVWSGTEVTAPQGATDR

How the values were obtained:
sigma-1 receptor (σ1R) [1] = target: T1, sigma-1 receptor (σ1R) (Homo sapiens, UniProt Q99720); settings: σ1, 10 μM, quadruplicate
α4β4 = α4β4 (Rattus norvegicus, UniProt P09483+P12392); assay: biochemical; settings: read-out: Primary binding assay Inhibition, Mean %
SERT = SERT (Homo sapiens, UniProt P31645); assay: biochemical; settings: read-out: Primary binding assay Inhibition, Mean %
D3 = D3 (Homo sapiens, UniProt P35462); assay: biochemical; settings: read-out: Primary binding assay Inhibition, Mean %
α3β4 = α3β4 (Rattus norvegicus, UniProt P04757+P12392); assay: biochemical; settings: read-out: Primary binding assay Inhibition, Mean %
α1B = α1B (Homo sapiens, UniProt P35368); assay: biochemical; settings: read-out: Primary binding assay Inhibition, Mean %
β2 = β2 (Homo sapiens, UniProt P07550); assay: biochemical; settings: read-out: Primary binding assay Inhibition, Mean %
5-HT1E = 5-HT1E (Homo sapiens, UniProt P28566); assay: biochemical; settings: read-out: Primary binding assay Inhibition, Mean %
NET = NET (Homo sapiens, UniProt P23975); assay: biochemical; settings: read-out: Primary binding assay Inhibition, Mean %
KOR = KOR (Homo sapiens, UniProt P41145); assay: biochemical; settings: read-out: Primary binding assay Inhibition, Mean %
5-HT7A = 5-HT7A (Homo sapiens, UniProt P34969); assay: biochemical; settings: read-out: Primary binding assay Inhibition, Mean %
MOR = MOR (Homo sapiens, UniProt P35372); assay: biochemical; settings: read-out: Primary binding assay Inhibition, Mean %
sigma-1 receptor (σ1R) [2] = target: T1, sigma-1 receptor (σ1R); assay: biochemical; settings: read-out: Primary binding assay Inhibition % (mean), σ1, 10 μM, quadruplicate
PBR = PBR (Rattus norvegicus, UniProt P16257); assay: biochemical; settings: read-out: Primary binding assay Inhibition, Mean %
H1 = H1 (Homo sapiens, UniProt P35367); assay: biochemical; settings: read-out: Primary binding assay Inhibition, Mean %
D1 = D1 (Homo sapiens, UniProt P21728); assay: biochemical; settings: read-out: Primary binding assay Inhibition, Mean %
α4β2 (Rat Brain) = α4β2 (Rat Brain) (Rattus norvegicus, UniProt P09483+P12390); assay: biochemical; settings: read-out: Primary binding assay Inhibition, Mean %
5-HT2B = 5-HT2B (Homo sapiens, UniProt P41595); assay: biochemical
5-HT1A = 5-HT1A (Homo sapiens, UniProt P08908); assay: biochemical; settings: read-out: Primary binding assay Inhibition, Mean %
M5 = M5 (Homo sapiens, UniProt P08912); assay: biochemical; settings: read-out: Primary binding assay Inhibition, Mean %
5-HT5A = 5-HT5A (Homo sapiens, UniProt P47898); assay: biochemical; settings: read-out: Primary binding assay Inhibition, Mean %
D4 = D4 (Homo sapiens, UniProt P21917); assay: biochemical; settings: read-out: Primary binding assay Inhibition, Mean %
M3 = M3 (Homo sapiens, UniProt P20309); assay: biochemical; settings: read-out: Primary binding assay Inhibition, Mean %
α3β2 = α3β2 (Rattus norvegicus, UniProt P04757+P12390); assay: biochemical; settings: read-out: Primary binding assay Inhibition, Mean %
α1D = α1D (Homo sapiens, UniProt P25100); assay: biochemical; settings: read-out: Primary binding assay Inhibition, Mean %
5-HT1B = 5-HT1B (Homo sapiens, UniProt P28222); assay: biochemical; settings: read-out: Primary binding assay Inhibition, Mean %
H3 = H3 (Homo sapiens, UniProt Q9Y5N1); assay: biochemical; settings: read-out: Primary binding assay Inhibition, Mean %
α1A = α1A (Homo sapiens, UniProt P35348); assay: biochemical; settings: read-out: Primary binding assay Inhibition, Mean %
D5 = D5 (Homo sapiens, UniProt P21918); assay: biochemical; settings: read-out: Primary binding assay Inhibition, Mean %
M1 = M1 (Homo sapiens, UniProt P11229); assay: biochemical; settings: read-out: Primary binding assay Inhibition, Mean %
α2B = α2B (Homo sapiens, UniProt P18089); assay: biochemical; settings: read-out: Primary binding assay Inhibition, Mean %
α2β2 = α2β2 (Rattus norvegicus, UniProt P12389+P12390); assay: biochemical; settings: read-out: Primary binding assay Inhibition, Mean %
5-HT2C = 5-HT2C (Homo sapiens, UniProt P28335); assay: biochemical; settings: read-out: Primary binding assay Inhibition, Mean %
5-HT6 = 5-HT6 (Homo sapiens, UniProt P50406); assay: biochemical; settings: read-out: Primary binding assay Inhibition, Mean %
DOR = DOR (Homo sapiens, UniProt P41143); assay: biochemical; settings: read-out: Primary binding assay Inhibition, Mean %
α2β4 = α2β4 (Rattus norvegicus, UniProt P12389+P12392); assay: biochemical; settings: read-out: Primary binding assay Inhibition, Mean %
M2 = M2 (Homo sapiens, UniProt P08172); assay: biochemical; settings: read-out: Primary binding assay Inhibition, Mean %
5-HT3 = 5-HT3 (Homo sapiens, UniProt P46098); assay: biochemical; settings: read-out: Primary binding assay Inhibition, Mean %
H4 = H4 (Homo sapiens, UniProt Q9H3N8); assay: biochemical; settings: read-out: Primary binding assay Inhibition, Mean %
D2 = D2 (Homo sapiens, UniProt P14416); assay: biochemical; settings: read-out: Primary binding assay Inhibition, Mean %
DAT = DAT (Homo sapiens, UniProt Q01959); assay: biochemical; settings: read-out: Primary binding assay Inhibition, Mean %
5-HT1D = 5-HT1D (Homo sapiens, UniProt P28221); assay: biochemical; settings: read-out: Primary binding assay Inhibition, Mean %
α4β2 = α4β2 (Rattus norvegicus, UniProt P09483+P12390); assay: biochemical; settings: read-out: Primary binding assay Inhibition, Mean %
5-HT2A = 5-HT2A (Homo sapiens, UniProt P28223); assay: biochemical; settings: read-out: Primary binding assay Inhibition, Mean %
α2A = α2A (Homo sapiens, UniProt P08913); assay: biochemical; settings: read-out: Primary binding assay Inhibition, Mean %
β3 = β3 (Homo sapiens, UniProt P13945); assay: biochemical; settings: read-out: Primary binding assay Inhibition, Mean %
M4 = M4 (Homo sapiens, UniProt P08173); assay: biochemical; settings: read-out: Primary binding assay Inhibition, Mean %
H2 = H2 (Homo sapiens, UniProt P25021); assay: biochemical; settings: read-out: Primary binding assay Inhibition, Mean %
α2C = α2C (Homo sapiens, UniProt P18825); assay: biochemical; settings: read-out: Primary binding assay Inhibition, Mean %
β1 = β1 (Homo sapiens, UniProt P08588); assay: biochemical; settings: read-out: Primary binding assay Inhibition, Mean %

## CCCC(=O)O[C@@H]1C2=CCN3CCC[C@@H]3[C@H]2CCC1(C)C [Compound 1, Ischnocybine A]
sigma-1 receptor (σ1R) [1]
  Primary binding assay Inhibition % (mean): 102 ± 2%
α4β4
  inhibition at 10 µM: -7.43%
SERT
  inhibition at 10 µM: 0.65%
D3
  inhibition at 10 µM: 4.92%
α3β4
  inhibition at 10 µM: -7.58%
α1B
  inhibition at 10 µM: -11.6%
β2
  inhibition at 10 µM: -13.4%
5-HT1E
  inhibition at 10 µM: -12.6%
NET
  inhibition at 10 µM: 23%
KOR
  inhibition at 10 µM: 22.2%
5-HT7A
  inhibition at 10 µM: 33.1%
MOR
  inhibition at 10 µM: 1.38%
sigma-1 receptor (σ1R) [2]
  inhibition at 10 µM: 102%
PBR
  inhibition at 10 µM: -22.2%
H1
  inhibition at 10 µM: 16.9%
D1
  inhibition at 10 µM: 32.4%
α4β2 (Rat Brain)
  inhibition at 10 µM: 0.84%
5-HT2B
  Ki: 9.31 µM
5-HT2B; read-out: Primary binding assay Inhibition, Mean %
  inhibition at 10 µM: -64.4%
5-HT1A
  inhibition at 10 µM: 9.74%
M5
  inhibition at 10 µM: 5.04%
5-HT5A
  inhibition at 10 µM: -14.8%
D4
  inhibition at 10 µM: 48.8%
M3
  inhibition at 10 µM: 17.5%
α3β2
  inhibition at 10 µM: -8.26%
α1D
  inhibition at 10 µM: -4.04%
5-HT1B
  inhibition at 10 µM: 13%
H3
  inhibition at 10 µM: 32.9%
α1A
  inhibition at 10 µM: 5.63%
D5
  inhibition at 10 µM: 8.64%
M1
  inhibition at 10 µM: 1.18%
α2B
  inhibition at 10 µM: 15%
α2β2
  inhibition at 10 µM: 5.44%
5-HT2C
  inhibition at 10 µM: -3.13%
5-HT6
  inhibition at 10 µM: -14.1%
DOR
  inhibition at 10 µM: -11.4%
α2β4
  inhibition at 10 µM: -6.43%
M2
  inhibition at 10 µM: 5.74%
5-HT3
  inhibition at 10 µM: 4%
H4
  inhibition at 10 µM: 5.56%
D2
  inhibition at 10 µM: 9.14%
DAT
  inhibition at 10 µM: -2.29%
5-HT1D
  inhibition at 10 µM: 18.1%
α4β2
  inhibition at 10 µM: 0.41%
5-HT2A
  inhibition at 10 µM: 0.94%
α2A
  inhibition at 10 µM: 24.2%
β3
  inhibition at 10 µM: 17.1%
M4
  inhibition at 10 µM: 3.34%
H2
  inhibition at 10 µM: 5.72%
α2C
  inhibition at 10 µM: 37.7%
β1
  inhibition at 10 µM: -10.1%
